These are yes or no findings as the source states them, for the method shown. In cells and extracts the contact can be indirect. Some entries that bind do so weakly or less than the wild type.

Sequences of proteins named here, by UniProt entry; tags and fusion partners are left off. Residues count along the entry.
UniProt P42858: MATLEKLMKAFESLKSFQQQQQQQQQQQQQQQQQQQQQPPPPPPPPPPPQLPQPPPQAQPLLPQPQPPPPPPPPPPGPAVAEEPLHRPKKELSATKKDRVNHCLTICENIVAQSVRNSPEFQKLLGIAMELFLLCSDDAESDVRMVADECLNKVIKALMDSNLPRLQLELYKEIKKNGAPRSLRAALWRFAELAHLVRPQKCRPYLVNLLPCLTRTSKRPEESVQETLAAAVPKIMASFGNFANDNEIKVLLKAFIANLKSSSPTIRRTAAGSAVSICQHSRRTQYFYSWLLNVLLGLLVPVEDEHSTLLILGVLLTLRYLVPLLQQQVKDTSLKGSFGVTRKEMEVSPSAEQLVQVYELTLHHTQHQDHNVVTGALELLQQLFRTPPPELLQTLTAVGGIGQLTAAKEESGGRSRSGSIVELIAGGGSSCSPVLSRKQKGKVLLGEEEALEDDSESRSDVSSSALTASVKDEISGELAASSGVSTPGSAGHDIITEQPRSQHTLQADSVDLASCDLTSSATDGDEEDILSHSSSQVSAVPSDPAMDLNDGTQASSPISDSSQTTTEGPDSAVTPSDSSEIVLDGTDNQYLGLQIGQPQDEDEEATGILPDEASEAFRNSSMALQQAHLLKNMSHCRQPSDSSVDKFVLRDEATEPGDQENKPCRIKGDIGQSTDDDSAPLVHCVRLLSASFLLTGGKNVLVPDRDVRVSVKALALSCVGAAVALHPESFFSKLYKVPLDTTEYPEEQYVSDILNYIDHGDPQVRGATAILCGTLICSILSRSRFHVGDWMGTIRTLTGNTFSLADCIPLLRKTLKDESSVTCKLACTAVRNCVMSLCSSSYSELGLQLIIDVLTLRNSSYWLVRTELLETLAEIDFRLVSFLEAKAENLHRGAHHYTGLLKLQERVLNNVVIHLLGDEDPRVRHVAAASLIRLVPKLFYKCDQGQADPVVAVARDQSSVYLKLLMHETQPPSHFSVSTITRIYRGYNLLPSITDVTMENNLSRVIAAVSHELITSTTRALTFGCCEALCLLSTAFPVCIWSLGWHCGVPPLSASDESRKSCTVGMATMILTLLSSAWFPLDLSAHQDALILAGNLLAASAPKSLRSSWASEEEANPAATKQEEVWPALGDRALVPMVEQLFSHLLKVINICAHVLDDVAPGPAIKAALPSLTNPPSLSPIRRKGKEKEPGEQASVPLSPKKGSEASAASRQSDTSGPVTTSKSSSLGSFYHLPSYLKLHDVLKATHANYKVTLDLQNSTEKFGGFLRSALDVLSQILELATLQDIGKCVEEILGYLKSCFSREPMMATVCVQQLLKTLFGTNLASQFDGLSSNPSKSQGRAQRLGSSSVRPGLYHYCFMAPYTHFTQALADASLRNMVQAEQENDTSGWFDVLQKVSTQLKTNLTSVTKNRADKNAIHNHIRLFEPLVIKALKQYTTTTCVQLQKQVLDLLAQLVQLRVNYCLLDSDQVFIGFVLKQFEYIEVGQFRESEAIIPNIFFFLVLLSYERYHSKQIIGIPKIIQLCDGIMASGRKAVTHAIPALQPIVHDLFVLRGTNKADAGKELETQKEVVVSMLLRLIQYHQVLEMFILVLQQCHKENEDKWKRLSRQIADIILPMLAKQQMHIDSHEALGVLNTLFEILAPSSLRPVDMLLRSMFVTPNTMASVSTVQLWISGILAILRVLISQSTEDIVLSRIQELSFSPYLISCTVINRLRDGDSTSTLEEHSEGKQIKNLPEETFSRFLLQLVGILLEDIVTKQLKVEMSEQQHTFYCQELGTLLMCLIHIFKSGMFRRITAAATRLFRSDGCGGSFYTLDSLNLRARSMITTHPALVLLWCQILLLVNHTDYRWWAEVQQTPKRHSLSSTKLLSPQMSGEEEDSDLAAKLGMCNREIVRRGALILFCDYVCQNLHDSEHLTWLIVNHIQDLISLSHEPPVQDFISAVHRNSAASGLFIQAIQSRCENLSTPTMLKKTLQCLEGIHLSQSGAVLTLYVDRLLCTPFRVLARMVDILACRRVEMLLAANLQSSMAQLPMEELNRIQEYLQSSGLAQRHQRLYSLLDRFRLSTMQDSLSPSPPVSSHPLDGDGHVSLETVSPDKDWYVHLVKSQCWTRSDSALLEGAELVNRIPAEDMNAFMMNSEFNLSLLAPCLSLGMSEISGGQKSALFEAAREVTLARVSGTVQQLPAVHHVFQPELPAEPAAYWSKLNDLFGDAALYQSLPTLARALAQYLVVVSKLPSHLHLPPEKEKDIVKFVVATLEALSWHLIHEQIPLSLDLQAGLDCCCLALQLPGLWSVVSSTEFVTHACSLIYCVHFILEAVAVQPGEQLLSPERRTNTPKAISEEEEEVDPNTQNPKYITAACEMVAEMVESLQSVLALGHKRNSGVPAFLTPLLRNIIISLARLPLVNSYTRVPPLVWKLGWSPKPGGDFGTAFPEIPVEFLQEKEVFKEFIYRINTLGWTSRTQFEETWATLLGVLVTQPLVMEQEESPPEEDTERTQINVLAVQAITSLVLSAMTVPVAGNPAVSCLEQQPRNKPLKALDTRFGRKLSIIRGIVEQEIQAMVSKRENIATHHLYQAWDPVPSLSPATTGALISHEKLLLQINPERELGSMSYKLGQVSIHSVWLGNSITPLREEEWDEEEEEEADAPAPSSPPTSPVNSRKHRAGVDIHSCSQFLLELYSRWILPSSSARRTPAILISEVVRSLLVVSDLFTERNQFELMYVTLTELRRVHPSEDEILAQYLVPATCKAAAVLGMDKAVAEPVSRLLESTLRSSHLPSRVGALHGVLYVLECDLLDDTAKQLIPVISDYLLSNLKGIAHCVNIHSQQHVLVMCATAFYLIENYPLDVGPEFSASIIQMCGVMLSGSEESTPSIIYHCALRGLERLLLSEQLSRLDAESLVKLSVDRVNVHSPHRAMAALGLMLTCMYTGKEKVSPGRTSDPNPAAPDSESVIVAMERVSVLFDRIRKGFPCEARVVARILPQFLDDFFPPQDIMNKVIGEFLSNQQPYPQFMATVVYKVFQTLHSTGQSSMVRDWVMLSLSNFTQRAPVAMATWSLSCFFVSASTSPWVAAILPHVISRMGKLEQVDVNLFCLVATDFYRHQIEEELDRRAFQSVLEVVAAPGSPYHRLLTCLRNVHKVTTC
UniProt P02649, residues 19-317: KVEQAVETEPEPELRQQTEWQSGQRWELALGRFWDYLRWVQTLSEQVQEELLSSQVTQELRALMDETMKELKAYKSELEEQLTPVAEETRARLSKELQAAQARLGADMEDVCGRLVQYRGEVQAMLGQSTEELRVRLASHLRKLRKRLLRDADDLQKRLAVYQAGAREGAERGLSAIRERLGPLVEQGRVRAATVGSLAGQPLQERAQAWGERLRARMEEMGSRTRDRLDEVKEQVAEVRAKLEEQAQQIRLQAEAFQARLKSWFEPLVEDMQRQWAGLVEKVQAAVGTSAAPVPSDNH

The target in the experiment is Huntingtin protein (HTT), endogenous full length (human (endogenous in HEK293)) (UniProt P42858). Briefly: co-IP; 1 uL anti-HTT 5526 antibody with 500 ug HEK293 lysate for 1 h, Dynabeads M-280 anti-rabbit, 4°C 1 h; blot probed with anti-GFP antibodies.

Regarding “APOE3 tagged with mCherry-SepHluorin (from UniProt P02649 19-317)”, the binding result is reported as “binds”.

The values above are taken from article PMC12847462.
